Assay [1] has as its target VEGF-Trap (chimeric protein of VEGFR-1 domain 2 and VEGFR-2 domain 3 fused to Fc) (UniProt P17948). In words: solid phase ELISA with VEGF-trap.
Assay [2] shares this target. Description: solid phase ELISA, VEGF/PIGF variant immobilised, VEGF-trap titrated.

Amino acid sequences for entries named in this document (tags omitted). A change or cut given only in a name is not applied to a line headed by its entry.
UniProt P17948: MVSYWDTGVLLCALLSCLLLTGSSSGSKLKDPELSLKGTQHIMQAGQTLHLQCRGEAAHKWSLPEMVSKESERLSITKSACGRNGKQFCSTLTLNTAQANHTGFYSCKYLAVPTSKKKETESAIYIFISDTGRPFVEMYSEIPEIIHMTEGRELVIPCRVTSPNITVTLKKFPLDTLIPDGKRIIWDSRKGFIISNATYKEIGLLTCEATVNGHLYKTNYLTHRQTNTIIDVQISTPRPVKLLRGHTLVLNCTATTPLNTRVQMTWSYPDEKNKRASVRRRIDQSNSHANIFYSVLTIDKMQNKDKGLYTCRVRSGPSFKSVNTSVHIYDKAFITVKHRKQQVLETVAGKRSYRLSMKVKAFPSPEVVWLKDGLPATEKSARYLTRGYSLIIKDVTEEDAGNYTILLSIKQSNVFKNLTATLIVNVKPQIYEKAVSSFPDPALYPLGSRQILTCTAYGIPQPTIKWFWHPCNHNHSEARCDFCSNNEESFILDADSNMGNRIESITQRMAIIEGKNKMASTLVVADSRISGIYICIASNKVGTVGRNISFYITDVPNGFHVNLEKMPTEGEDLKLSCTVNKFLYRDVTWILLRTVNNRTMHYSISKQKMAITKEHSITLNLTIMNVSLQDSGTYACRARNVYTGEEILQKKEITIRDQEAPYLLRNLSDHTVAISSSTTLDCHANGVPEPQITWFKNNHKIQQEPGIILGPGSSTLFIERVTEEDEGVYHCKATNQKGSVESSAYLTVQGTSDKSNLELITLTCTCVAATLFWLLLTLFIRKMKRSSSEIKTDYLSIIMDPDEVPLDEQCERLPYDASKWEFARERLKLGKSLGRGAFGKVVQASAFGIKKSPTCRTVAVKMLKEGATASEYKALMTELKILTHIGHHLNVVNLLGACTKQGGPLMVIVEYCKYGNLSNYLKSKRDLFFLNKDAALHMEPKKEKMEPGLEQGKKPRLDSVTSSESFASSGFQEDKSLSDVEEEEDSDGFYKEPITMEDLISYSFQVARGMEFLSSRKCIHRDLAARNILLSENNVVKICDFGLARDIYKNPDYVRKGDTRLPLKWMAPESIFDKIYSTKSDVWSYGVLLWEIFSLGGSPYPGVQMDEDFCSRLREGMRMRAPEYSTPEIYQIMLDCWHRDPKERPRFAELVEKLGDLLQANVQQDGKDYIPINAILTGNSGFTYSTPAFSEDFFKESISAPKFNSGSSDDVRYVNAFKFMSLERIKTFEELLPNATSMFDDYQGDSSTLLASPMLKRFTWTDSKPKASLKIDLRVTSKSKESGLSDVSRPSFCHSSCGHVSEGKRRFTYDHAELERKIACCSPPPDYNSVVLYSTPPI

These are yes or no findings as the source states them, for the method shown. Some entries that bind do so weakly or less than the wild type.

B1: single chain PIGF dimer (scPIGF) (ligand, not shown: small tags and cut ends)
chain: TASLPAVPPQQWALSAGNGSSEVEVVPFQEVWGRSYCRALERLVDVVSEYPSEVEHMFSPSCVSLLRCTGCCGDENLHCVPVETANVTMQLLKIRSGDRPSYVELTFSQHVRCECRPLREKMKPERCGDAVPRRGSTSGSGKSSEGKGLPAVPPQQWALSAGNGSSEVEVVPFQEVWGRSYCRALERLVDVVSEYPSEVEHMFSPSCVSLLRCTGCCGDENLHCVPVETANVTMQLLKIRSGDRPSYVELTFSQHVRCECRPLREKMKPERCGDAVPRRGST
Regarding B1, the binding result in assay [1] and in assay [2] was “binds” each time.

B2: monomeric PIGF (moPIGF) (ligand, UniProt P49763-2 19-149, looked up, not shown: small tags and cut ends)
chain: LPAVPPQQWALSAGNGSSEVEVVPFQEVWGRSYCRALERLVDVVSEYPSEVEHMFSPSCVSLLRCTGCCGDENLHCVPVETANVTMQLLKIRSGDRPSYVELTFSQHVRCECRPLREKMKPERCGDAVPRR
Regarding B2, the binding result in assay [1] and in assay [2] was “binds” each time.

The values are drawn from patent publication US20230119290A1 (UNIVERSIT T ZU K LN, published 2023).
